Reference: US9428507B2, “Compounds for the treatment of malaria” (The Broad Institute, Inc., priority 2013, dated 2016)
For at least one compound, name, drawing or mass did not settle the structure.

Test system: P. berghei (ANKA GFP-luc) sporozoites
Assay: In vivo P. berghei liver-stage assay
Design: species or system CD-1 mice
Details: orally at 50 mg/kg two hours after sporozoite inoculation
Method: CD-1 mice (n=4 per experimental group; female; 6-7-week-old; 20-24 g) were inoculated intravenously with 1×10^5 freshly isolated P. berghei(ANKA GFP-luc) sporozoites intravenously, and compounds were administered orally at 50 mg/kg two hours later. Bioluminescence signals from the transgenic parasites were monitored by the In vivo Imaging System (IVIS 100, Xenogen; Caliper Life Sciences). Animals with parasitemia exceeding 20% were euthanized.

O=C1C(O)=C([C@H]2CC[C@H](c3ccc(Cl)cc3)CC2)C(=O)c2ccccc21 [atovaquone, reference compound]
Parasitemia of treated animals (untreated controls: systemic parasitemia by day four): remained parasite free
